Results are given in words; binding and its absence hold for the method and conditions named. Binding seen in cells or lysates may run through a third protein. Binding can be weak; no strength is given.

Protein sequences, listed by entry. Tags and fused reporters are not part of them. Lines headed by an entry give the natural chain unless they say otherwise; changes in a name come on top.
UniProt Q9UNF0: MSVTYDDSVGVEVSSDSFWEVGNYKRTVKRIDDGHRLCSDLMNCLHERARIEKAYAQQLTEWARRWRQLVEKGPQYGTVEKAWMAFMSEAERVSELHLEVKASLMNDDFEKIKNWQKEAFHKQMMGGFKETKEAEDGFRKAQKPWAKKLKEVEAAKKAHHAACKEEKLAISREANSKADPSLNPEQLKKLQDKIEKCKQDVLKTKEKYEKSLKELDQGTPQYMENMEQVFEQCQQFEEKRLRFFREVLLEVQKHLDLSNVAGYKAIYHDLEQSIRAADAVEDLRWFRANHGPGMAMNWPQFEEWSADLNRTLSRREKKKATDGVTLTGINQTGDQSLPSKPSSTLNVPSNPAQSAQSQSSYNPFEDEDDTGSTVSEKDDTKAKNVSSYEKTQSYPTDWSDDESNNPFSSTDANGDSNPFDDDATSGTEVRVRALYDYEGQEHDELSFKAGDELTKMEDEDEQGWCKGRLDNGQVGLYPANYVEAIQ
UniProt Q53SF7: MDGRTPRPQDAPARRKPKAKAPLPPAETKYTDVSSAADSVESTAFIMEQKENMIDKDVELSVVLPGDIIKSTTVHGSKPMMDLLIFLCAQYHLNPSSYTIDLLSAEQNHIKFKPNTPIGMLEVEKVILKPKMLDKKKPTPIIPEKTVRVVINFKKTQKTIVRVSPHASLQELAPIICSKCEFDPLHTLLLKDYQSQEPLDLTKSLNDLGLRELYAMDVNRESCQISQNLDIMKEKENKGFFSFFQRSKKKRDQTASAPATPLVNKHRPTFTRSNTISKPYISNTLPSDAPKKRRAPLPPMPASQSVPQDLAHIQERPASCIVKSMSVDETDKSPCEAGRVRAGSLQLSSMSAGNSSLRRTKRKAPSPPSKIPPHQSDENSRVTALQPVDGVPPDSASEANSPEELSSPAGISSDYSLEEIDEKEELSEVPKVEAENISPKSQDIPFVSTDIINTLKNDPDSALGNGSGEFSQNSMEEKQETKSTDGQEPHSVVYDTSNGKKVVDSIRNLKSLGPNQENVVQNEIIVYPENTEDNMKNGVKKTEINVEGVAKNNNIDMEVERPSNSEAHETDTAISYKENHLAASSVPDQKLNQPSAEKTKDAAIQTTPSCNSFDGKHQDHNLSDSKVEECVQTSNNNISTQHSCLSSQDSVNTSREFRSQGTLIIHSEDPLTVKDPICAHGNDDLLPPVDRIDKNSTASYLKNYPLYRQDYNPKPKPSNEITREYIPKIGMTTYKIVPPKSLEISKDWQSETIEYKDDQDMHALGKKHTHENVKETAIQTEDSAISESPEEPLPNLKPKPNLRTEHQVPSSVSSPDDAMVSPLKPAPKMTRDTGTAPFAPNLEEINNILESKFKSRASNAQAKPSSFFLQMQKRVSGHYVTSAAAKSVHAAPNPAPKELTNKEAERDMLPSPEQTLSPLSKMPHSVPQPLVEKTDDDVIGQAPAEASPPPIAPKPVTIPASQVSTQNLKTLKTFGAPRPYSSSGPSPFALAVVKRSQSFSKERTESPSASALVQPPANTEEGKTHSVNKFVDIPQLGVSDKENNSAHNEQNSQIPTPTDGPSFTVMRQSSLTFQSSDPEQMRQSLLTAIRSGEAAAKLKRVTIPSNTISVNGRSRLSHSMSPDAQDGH

This note sets out measurements from article PMC9636508.

This test has as its target PACSIN2 wild type, overexpressed (human) (UniProt Q9UNF0). The test can be described thus: co-IP; K562 cells transfected with expression plasmids, lysed after 24 h in NETN buffer (150 mM NaCl, 0.5 mM EDTA, 50 mM Tris pH 7.5, 0.5% NP-40); streptavidin-coated beads or protein A-agarose with primary antibody; western blot. Background: A western blot detects proteins with antibodies after separation by electrophoresis.
As to “Cobll1 D2 (internal deletion mutant) (from UniProt Q53SF7)”, the binding entry is given as “binds”. Take “Cobll1 D3 (internal deletion mutant) (from UniProt Q53SF7)”: the binding entry is given as “binds”. With “Cobll1 D4 (internal deletion mutant) (from UniProt Q53SF7)” the entry was “binds”. Take “Cobll1-3A mutant (all three proline-rich motifs mutated to alanine) (from UniProt Q53SF7)”: the binding entry was “no binding”.
